Assay results reported in the supplement of paper PMC10849652.
The list shows a part of the results.

Amino acid sequences for entries named in this document (tags omitted). A change or cut given only in a name is not applied to a line headed by its entry.
UniProt Q8NB16: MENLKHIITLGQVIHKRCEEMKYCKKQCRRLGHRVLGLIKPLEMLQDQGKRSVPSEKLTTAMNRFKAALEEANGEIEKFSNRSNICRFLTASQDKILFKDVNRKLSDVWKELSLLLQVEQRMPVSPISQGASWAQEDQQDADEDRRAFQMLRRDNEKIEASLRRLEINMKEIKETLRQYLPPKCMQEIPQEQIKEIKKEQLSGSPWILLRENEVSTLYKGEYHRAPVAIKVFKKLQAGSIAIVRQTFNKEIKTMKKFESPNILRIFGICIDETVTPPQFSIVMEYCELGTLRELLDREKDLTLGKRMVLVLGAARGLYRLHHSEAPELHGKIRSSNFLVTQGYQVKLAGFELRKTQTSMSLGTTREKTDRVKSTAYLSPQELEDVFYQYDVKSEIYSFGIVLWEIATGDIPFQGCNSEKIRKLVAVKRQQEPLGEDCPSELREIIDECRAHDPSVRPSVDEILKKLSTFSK
UniProt Q9Y5U8: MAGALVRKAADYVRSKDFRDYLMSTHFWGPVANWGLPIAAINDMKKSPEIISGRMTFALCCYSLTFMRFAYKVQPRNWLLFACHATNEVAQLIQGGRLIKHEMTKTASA
UniProt Q86VX9: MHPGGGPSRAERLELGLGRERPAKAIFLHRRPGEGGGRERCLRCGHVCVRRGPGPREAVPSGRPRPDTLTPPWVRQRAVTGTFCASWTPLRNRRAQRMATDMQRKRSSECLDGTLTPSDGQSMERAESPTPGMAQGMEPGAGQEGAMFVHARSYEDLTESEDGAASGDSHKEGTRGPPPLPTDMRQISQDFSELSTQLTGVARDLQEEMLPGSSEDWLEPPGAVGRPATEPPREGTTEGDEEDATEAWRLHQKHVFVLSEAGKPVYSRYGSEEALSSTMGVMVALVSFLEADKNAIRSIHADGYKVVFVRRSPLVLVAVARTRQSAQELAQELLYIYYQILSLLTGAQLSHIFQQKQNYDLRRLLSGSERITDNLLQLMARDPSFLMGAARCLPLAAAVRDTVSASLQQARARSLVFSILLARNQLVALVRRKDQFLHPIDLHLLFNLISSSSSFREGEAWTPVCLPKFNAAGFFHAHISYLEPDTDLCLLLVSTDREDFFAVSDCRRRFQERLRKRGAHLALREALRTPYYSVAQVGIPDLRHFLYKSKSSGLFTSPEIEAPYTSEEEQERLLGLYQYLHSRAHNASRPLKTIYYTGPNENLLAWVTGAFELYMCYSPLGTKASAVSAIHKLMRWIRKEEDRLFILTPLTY
UniProt Q9UI43: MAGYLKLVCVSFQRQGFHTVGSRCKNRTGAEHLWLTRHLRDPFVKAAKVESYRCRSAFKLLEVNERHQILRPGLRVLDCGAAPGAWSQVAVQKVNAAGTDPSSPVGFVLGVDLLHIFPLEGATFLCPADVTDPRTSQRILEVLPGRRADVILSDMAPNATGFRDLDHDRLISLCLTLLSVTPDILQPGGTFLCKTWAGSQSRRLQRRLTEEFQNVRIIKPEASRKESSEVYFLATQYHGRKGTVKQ
UniProt Q7L4E1: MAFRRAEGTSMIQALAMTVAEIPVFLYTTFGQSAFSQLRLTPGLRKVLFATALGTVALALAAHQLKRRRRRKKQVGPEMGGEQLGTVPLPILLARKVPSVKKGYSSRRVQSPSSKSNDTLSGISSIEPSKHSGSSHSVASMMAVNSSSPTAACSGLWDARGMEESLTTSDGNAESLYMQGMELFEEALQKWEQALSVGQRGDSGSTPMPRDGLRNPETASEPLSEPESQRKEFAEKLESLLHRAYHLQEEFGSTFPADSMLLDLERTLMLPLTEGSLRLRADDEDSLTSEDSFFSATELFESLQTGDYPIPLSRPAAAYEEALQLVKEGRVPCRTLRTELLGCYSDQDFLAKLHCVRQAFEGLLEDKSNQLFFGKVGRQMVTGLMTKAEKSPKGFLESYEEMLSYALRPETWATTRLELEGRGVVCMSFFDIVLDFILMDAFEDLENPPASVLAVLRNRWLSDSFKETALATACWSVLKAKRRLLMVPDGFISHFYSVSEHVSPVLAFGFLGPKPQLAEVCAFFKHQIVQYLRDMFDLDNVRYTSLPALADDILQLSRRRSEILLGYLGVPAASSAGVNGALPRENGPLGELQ
UniProt Q8N344: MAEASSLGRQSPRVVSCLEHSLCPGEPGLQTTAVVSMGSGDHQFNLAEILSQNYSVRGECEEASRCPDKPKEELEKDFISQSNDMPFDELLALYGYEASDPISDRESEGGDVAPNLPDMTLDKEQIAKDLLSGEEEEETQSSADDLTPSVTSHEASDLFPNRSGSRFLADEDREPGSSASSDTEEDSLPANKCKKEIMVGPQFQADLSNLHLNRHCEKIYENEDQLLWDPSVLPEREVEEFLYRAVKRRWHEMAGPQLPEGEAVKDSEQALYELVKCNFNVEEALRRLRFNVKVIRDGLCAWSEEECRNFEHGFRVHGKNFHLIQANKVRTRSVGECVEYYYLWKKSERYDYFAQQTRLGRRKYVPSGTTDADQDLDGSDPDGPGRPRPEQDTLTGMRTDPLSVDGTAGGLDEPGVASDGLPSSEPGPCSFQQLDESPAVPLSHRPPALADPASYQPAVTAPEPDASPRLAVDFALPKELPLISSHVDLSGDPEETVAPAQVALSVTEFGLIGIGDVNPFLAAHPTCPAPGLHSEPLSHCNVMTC
UniProt P51511: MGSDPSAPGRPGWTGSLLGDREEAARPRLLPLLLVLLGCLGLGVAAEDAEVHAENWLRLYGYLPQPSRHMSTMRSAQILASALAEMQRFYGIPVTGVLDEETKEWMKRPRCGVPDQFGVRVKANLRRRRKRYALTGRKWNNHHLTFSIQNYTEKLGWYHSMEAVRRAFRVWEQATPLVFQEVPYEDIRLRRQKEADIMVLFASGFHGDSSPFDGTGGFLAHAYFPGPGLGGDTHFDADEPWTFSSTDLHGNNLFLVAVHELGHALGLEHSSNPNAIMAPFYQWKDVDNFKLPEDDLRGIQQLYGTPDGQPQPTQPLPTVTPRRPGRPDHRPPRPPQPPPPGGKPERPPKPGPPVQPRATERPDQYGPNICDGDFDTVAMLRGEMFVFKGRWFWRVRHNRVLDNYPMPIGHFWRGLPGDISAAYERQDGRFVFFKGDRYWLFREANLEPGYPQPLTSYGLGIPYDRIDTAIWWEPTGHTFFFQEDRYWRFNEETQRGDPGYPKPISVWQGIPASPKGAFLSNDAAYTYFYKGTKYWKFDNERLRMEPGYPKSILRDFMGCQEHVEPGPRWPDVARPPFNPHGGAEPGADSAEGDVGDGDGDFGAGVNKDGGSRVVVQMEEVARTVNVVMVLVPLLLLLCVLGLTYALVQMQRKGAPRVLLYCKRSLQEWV
UniProt P08473: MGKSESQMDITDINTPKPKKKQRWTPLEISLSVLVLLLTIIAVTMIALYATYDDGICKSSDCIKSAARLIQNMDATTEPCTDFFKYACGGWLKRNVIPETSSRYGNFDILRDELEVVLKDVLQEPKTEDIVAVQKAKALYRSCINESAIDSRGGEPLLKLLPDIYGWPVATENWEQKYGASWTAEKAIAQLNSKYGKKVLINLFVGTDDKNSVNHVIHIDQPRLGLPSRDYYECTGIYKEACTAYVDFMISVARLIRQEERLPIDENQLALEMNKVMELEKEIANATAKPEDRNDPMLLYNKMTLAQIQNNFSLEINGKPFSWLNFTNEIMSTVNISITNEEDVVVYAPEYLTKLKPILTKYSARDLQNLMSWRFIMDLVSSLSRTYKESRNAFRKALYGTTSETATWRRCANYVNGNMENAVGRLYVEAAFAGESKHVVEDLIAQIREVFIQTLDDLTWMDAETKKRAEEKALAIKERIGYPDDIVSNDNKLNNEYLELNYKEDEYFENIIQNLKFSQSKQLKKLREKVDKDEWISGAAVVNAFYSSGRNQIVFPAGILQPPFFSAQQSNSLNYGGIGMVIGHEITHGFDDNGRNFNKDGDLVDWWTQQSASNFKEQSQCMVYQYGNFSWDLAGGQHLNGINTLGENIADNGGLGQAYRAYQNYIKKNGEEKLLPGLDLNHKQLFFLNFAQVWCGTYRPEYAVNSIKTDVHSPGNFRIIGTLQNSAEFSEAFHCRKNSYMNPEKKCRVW
UniProt Q9Y6X9: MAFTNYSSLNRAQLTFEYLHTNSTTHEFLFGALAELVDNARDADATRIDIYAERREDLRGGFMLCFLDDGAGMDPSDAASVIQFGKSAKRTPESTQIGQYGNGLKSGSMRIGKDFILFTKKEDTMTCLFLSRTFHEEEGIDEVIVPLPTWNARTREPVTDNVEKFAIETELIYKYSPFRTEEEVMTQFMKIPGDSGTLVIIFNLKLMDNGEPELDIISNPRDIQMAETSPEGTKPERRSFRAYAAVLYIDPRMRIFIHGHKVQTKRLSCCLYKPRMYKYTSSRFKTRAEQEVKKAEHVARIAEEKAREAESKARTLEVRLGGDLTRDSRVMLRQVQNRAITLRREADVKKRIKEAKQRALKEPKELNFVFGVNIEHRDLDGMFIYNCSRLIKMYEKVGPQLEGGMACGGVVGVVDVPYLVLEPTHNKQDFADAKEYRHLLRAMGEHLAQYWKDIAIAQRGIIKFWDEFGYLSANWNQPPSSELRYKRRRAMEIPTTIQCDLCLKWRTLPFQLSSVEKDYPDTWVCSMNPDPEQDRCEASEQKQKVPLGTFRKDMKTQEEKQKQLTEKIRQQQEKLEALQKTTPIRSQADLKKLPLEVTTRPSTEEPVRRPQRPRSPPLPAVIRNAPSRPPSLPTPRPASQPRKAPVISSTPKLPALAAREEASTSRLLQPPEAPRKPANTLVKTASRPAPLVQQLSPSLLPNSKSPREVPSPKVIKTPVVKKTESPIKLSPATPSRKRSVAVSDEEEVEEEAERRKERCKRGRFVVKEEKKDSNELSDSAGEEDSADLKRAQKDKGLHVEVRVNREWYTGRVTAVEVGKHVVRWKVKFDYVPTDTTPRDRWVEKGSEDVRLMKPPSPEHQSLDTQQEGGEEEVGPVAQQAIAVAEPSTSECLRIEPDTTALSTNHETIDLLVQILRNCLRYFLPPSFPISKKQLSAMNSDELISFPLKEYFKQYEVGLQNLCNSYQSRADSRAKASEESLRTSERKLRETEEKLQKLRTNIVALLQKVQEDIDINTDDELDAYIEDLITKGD
UniProt Q13015: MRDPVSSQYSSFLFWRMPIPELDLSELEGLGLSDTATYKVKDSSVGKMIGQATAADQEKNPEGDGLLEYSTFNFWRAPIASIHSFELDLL
UniProt Q9UJG1: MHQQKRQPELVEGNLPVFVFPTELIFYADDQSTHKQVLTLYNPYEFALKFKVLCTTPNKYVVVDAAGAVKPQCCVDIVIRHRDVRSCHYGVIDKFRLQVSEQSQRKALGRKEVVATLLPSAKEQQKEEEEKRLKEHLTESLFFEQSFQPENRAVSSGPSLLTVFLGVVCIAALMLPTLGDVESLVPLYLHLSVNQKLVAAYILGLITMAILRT
UniProt O75030: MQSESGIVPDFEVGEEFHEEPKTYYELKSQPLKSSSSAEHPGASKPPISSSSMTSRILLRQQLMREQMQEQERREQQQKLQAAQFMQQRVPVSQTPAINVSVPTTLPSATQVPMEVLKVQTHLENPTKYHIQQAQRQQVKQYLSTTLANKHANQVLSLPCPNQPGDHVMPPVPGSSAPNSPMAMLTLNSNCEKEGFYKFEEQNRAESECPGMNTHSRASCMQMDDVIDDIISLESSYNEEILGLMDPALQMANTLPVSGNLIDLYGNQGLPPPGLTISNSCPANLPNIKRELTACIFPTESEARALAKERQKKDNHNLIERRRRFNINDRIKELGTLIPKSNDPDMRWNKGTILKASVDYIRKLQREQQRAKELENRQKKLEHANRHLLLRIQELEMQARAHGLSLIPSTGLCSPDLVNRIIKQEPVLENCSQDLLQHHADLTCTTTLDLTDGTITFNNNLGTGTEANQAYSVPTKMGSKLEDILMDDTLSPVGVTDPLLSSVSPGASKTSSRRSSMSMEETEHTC
UniProt Q9H3L0: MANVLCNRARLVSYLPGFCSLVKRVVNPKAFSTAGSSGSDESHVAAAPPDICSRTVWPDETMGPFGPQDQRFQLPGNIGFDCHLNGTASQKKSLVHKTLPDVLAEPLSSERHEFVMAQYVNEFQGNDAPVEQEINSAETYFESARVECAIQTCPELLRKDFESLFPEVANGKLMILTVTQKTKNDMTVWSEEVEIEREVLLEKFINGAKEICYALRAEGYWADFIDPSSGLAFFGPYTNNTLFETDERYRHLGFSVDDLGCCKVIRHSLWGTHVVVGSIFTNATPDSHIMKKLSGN
UniProt Q95460, whole entry, looked up: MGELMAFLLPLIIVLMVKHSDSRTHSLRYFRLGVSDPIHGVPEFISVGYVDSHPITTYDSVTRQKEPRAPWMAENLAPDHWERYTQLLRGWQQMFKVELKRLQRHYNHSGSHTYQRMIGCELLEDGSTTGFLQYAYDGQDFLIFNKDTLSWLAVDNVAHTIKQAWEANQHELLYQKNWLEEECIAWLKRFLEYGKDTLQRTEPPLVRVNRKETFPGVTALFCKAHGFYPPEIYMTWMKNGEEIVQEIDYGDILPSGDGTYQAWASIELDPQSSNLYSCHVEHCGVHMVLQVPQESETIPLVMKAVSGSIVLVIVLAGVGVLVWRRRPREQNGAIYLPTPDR

Assays:
Experiment in all cases: log2 fold change, soluble protein after heating vs DMSO (PISA); higher = thermal stabilisation; K562 cells, 10 uM, 30 min; active = over 0.2 and 3.5 SD of the protein, either way, in both replicates (recomputed)
[1] = compound: COC1=CC=C(C=C1)CN2C=CC3=C2C=C(C=C3)C(=O)NO
Procedure, shortened: (§1)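 Soluble protein was defined as the supernatant after 21,000xg for 90 min. It came from K562 cells at 2×10^6 cells/mL given 10 μM compound for 30 min, heated in aliquots for 3 min across 48°C-58°C, pooled, and extracted in PBS with 0.5% NP-40 at 4°C, and was quantified by TMTpro 16plex LC-MS/MS with equalised channel sums. Thermal stability against control samples, from duplicates, is reported as log2 fold change.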

filanesib = compound: CON(C)C(=O)N1N=C(c2cc(F)ccc2F)S[C@@]1(CCCN)c1ccccc1 [filanesib]
Procedure, shortened: as §1

zotarolimus = compound: CO[C@H]1C[C@@H]2CC[C@@H](C)[C@@](O)(O2)C(=O)C(=O)N2CCCC[C@H]2C(=O)O[C@H]([C@H](C)C[C@@H]2CC[C@H](n3cnnn3)[C@H](OC)C2)CC(=O)[C@H](C)/C=C(\C)[C@@H](O)[C@@H](OC)C(=O)[C@H](C)C[C@H](C)/C=C/C=C/C=C/1C [zotarolimus]
Procedure, shortened: as §1

[2] = compound: COc1cc2nc(-c3cc(F)ccc3O)nc(N[C@@H]3CNC[C@H]3C(C)(C)O)c2cc1OC
Procedure, shortened: as §1

lapatinib = compound: CS(=O)(=O)CCNCc1ccc(-c2ccc3ncnc(Nc4ccc(OCc5cccc(F)c5)c(Cl)c4)c3c2)o1 [lapatinib]
Procedure, shortened: as §1

pictilisib = compound: CS(=O)(=O)N1CCN(Cc2cc3nc(-c4cccc5[nH]ncc45)nc(N4CCOCC4)c3s2)CC1 [pictilisib]
Procedure, shortened: as §1

[3] = compound: CS(=O)(=O)c1ccc(-c2cnc(N)c(C(=O)Nc3ccccc3)n2)cc1
Procedure, shortened: as §1

crizotinib = compound: C[C@@H](Oc1cc(-c2cnn(C3CCNCC3)c2)cnc1N)c1c(Cl)ccc(F)c1Cl [crizotinib]
Procedure, shortened: as §1

[4] = compound: C[C@@H]1COCCN1C2=NC(=NC(=C2)C3(CC3)S(=O)(=O)C)C4=C5C=CNC5=CC=C4
Procedure, shortened: as §1

[5] = compound: C[C@H](C1=CC=C(C=C1)C(=O)NC2=C3C=CNC3=NC=C2)N
Procedure, shortened: as §1

gandotinib = compound: Cc1cc(Nc2cc(CN3CCOCC3)c3nc(C)c(Cc4ccc(Cl)cc4F)n3n2)n[nH]1 [gandotinib]
Procedure, shortened: as §1

tozasertib = compound: Cc1cc(Nc2cc(N3CCN(C)CC3)nc(Sc3ccc(NC(=O)C4CC4)cc3)n2)n[nH]1 [tozasertib]
Procedure, shortened: as §1

doramapimod = compound: Cc1ccc(-n2nc(C(C)(C)C)cc2NC(=O)Nc2ccc(OCCN3CCOCC3)c3ccccc23)cc1 [doramapimod]
Procedure, shortened: as §1

idasanutlin = compound: COc1cc(C(=O)O)ccc1NC(=O)[C@@H]1N[C@@H](CC(C)(C)C)[C@](C#N)(c2ccc(Cl)cc2F)[C@H]1c1cccc(Cl)c1F [idasanutlin]
Procedure, shortened: as §1

alisertib = compound: COc1cc(Nc2ncc3c(n2)-c2ccc(Cl)cc2C(c2c(F)cccc2OC)=NC3)ccc1C(=O)O [alisertib]
Procedure, shortened: as §1

gefitinib = compound: COc1cc2ncnc(Nc3ccc(F)c(Cl)c3)c2cc1OCCCN1CCOCC1 [gefitinib]
Procedure, shortened: as §1

[6] = compound: COc1cccc2cc(-c3nc([C@H]4CC[C@H](C(=O)O)CC4)n4ncnc(N)c34)[nH]c12
Procedure, shortened: as §1

ispinesib = compound: Cc1ccc(C(=O)N(CCCN)[C@@H](c2nc3cc(Cl)ccc3c(=O)n2Cc2ccccc2)C(C)C)cc1 [ispinesib]
Procedure, shortened: as §1

duvelisib = compound: C[C@H](Nc1ncnc2nc[nH]c12)c1cc2cccc(Cl)c2c(=O)n1-c1ccccc1 [duvelisib]
Procedure, shortened: as §1

[7] = compound: Cc1cc(SCc2sc(-c3ccc(C(F)(F)F)cc3)nc2C)ccc1OCC(=O)O
Procedure, shortened: as §1

Measured: log2 fold change

MLKL (UniProt Q8NB16)
inactive: [1] -0.03 | filanesib -0.074 | zotarolimus -0.225 | [2] -0.202 | lapatinib 0.025 | pictilisib -0.069 | [3] -0.059 | crizotinib -0.05 | [4] -0.016 | [5] -0.077 | gandotinib -0.16 | tozasertib -0.045 | doramapimod -0.023

MICOS10 (UniProt Q5TGZ0)
inactive: [1] -0.098 | filanesib -0.059 | idasanutlin -0.04 | alisertib 0.073 | [2] -0.106 | gefitinib 0.02 | [6] -0.054 | lapatinib -0.028 | pictilisib 0.024 | [3] 0.085 | crizotinib 0.14 | [4] 0.222 | gandotinib -0.001 | tozasertib 0.112 | doramapimod 0.043 | ispinesib 0.011

MPC1 (UniProt Q9Y5U8)
inactive: filanesib -0.08 | zotarolimus 0.114 | idasanutlin -0.035 | alisertib -0.23 | [2] -0.116 | gefitinib -0.061 | [6] -0.023 | lapatinib 0.113 | [3] -0.106 | [5] -0.158 | duvelisib -0.061 | tozasertib 0.072 | [7] -0.207 | ispinesib 0.1

MON1A (UniProt Q86VX9)
inactive: [1] -0.118 | filanesib -0.023 | alisertib 0.291 | [2] -0.042 | gefitinib 0.427 | [6] 0.049 | lapatinib -0.003 | pictilisib -0.011 | [3] 0.049 | [4] 0.057 | gandotinib 0.116 | [7] 0.011 | doramapimod 0.045 | ispinesib -0.153
active: crizotinib -0.559

MRM2 (UniProt Q9UI43)
active: idasanutlin 0.518
inactive: zotarolimus 0.11 | [2] 0.078 | gefitinib 0.066 | lapatinib 0.108 | [5] -0.042 | [7] 0.123

MRPL57 (UniProt Q9BQC6)
inactive: filanesib 0.214 | idasanutlin -0.031 | alisertib -0.026 | [2] -0.063 | gefitinib -0.052 | [6] -0.055 | lapatinib 0.229 | pictilisib -0.073 | [3] 0.037 | [4] -0.258 | duvelisib -0.183 | gandotinib 0.085 | tozasertib -0.015 | [7] 0.023

Two records drawn at random from those above:
MPC1 (UniProt Q9Y5U8)
inactive: filanesib -0.08 | zotarolimus 0.114 | idasanutlin -0.035 | alisertib -0.23 | [2] -0.116 | gefitinib -0.061 | [6] -0.023 | lapatinib 0.113 | [3] -0.106 | [5] -0.158 | duvelisib -0.061 | tozasertib 0.072 | [7] -0.207 | ispinesib 0.1

MLKL (UniProt Q8NB16)
inactive: [1] -0.03 | filanesib -0.074 | zotarolimus -0.225 | [2] -0.202 | lapatinib 0.025 | pictilisib -0.069 | [3] -0.059 | crizotinib -0.05 | [4] -0.016 | [5] -0.077 | gandotinib -0.16 | tozasertib -0.045 | doramapimod -0.023

Next records.

MIGA2 (UniProt Q7L4E1)
inactive: zotarolimus 0.193 | [5] 0.373

MIER2 (UniProt Q8N344)
inactive: zotarolimus -0.072 | idasanutlin 0.177 | [4] 0.19 | [5] -0.15 | duvelisib 0.045 | [7] 0.035

MMP15 (UniProt P51511)
inactive: pictilisib -0.104 | gandotinib 0.033

MME (UniProt P08473)
inactive: alisertib -0.076 | [6] -0.146 | duvelisib -0.241 | [7] 0.146

MOCS2 (UniProt O96033)
inactive: filanesib 0.107 | zotarolimus -0.178 | idasanutlin 0.113 | pictilisib -0.271 | [3] 0.129 | [5] 0.074 | duvelisib 0.081 | gandotinib -0.075 | tozasertib -0.021 | [7] -0.105

MORC2 (UniProt Q9Y6X9)
inactive: [1] 0.195 | idasanutlin -0.018 | alisertib -0.012 | [2] 0.134 | [6] -0.013 | lapatinib -0.118 | crizotinib 0.027 | [4] 0.065 | doramapimod -0.042

MMGT1 (UniProt Q8N4V1)
inactive: [1] 0.039 | filanesib -0.031 | zotarolimus 0.044 | idasanutlin -0.032 | [2] 0.052 | gefitinib -0.118 | lapatinib 0.033 | [3] -0.014 | crizotinib 0.218 | [4] 0.197 | [5] -0.04 | duvelisib 0.108 | tozasertib 0.004 | [7] -0.021 | doramapimod -0.03 | ispinesib 0.077

MLLT11 (UniProt Q13015)
inactive: [1] 0.187 | filanesib 0.071 | zotarolimus -0.064 | alisertib -0.021 | [2] -0.069 | gefitinib 0.046 | [6] -0.049 | lapatinib -0.164 | pictilisib -0.057 | [3] -0.149 | crizotinib -0.083 | [4] 0.307 | [5] -0.116 | duvelisib 0.294 | gandotinib 0.028 | tozasertib -0.091 | [7] -0.099 | doramapimod 0.009 | ispinesib -0.022

MOSPD1 isoform 3 (UniProt Q9UJG1)
inactive: alisertib -0.134 | gefitinib -0.064 | [6] -0.246 | pictilisib -0.116 | gandotinib -0.131

MMRN1 (UniProt Q13201)
inactive: filanesib -0.149 | [3] 0.057 | duvelisib 0.163 | [7] 0 | ispinesib -0.021

MITF (UniProt O75030)
inactive: [1] 0.122 | filanesib 0.106 | idasanutlin -0.042 | alisertib 0.008 | gefitinib -0.13 | [6] 0 | pictilisib -0.397 | [3] 0.026 | crizotinib -0.137 | gandotinib -0.13 | doramapimod 0.006

MMADHC (UniProt Q9H3L0)
inactive: [1] -0.031 | zotarolimus 0.102 | idasanutlin -0.135 | alisertib 0.006 | [2] 0.056 | gefitinib 0.305 | [6] 0.013 | lapatinib 0.176 | pictilisib -0.114 | crizotinib 0.065 | [5] 0.093 | gandotinib -0.087 | [7] 0.084 | doramapimod 0.099 | ispinesib -0.038

MR1 (UniProt Q95460)
inactive: [1] -0.065 | alisertib -0.049 | [6] -0.323 | crizotinib -0.215 | [4] -0.03 | doramapimod -0.008
